Assay results reported in publication PMC5652794.
These are yes or no findings as the source states them, for the method shown. In cells and extracts the contact can be indirect. Some binding calls cover weakened binding; strength is not graded here.

The chains behind the UniProt entries cited, without tags or fusion partners.
UniProt Q9BYT3: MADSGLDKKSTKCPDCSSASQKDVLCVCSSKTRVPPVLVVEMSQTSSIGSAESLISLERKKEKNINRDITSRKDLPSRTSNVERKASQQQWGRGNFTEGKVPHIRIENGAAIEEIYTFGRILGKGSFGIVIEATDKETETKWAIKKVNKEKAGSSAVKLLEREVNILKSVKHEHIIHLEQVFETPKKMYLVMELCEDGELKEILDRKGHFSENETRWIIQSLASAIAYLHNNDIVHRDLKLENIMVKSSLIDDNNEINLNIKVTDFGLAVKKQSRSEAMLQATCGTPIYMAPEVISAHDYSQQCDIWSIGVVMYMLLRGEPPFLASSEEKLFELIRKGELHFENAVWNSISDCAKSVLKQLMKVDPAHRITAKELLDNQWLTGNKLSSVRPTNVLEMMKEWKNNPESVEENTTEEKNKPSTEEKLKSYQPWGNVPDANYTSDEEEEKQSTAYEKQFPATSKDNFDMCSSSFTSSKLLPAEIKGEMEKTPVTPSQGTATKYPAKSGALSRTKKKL
UniProt Q16665: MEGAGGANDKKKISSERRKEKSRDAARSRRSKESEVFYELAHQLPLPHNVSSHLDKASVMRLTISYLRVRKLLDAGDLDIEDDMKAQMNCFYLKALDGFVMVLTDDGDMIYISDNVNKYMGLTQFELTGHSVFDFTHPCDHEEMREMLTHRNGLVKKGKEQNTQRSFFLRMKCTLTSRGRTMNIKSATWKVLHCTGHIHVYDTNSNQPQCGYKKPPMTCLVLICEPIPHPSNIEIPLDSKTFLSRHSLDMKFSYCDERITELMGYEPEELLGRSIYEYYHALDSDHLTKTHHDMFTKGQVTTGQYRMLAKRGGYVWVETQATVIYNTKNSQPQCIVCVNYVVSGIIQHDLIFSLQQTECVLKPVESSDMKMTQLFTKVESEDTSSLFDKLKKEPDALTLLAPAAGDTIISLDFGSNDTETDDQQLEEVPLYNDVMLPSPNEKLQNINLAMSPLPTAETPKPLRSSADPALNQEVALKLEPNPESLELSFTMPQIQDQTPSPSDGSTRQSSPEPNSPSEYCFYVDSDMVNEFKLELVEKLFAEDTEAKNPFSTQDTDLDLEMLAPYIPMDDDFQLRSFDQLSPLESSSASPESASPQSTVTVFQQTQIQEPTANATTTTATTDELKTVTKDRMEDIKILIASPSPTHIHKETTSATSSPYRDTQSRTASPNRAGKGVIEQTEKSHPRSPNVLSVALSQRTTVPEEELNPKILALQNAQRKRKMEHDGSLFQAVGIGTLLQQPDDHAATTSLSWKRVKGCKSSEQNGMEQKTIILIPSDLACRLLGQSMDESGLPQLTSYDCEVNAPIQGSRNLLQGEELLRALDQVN

Biological target: serine/threonine kinase STK33 (human (endogenous in HCT-116, MIA PaCa2, MDA-MB-231)) (UniProt Q9BYT3)
Assay: co-IP; endogenous STK33 immunoprecipitated (3 μl STK33 antibody, Protein G-Sepharose) from 1 mg whole cell extract (10 mM Tris-HCl, 5 mM EDTA, 50 mM NaCl, 50 mM NaF, 1% Triton X100) of HCT-116, MIA PaCa2 and MDA-MB-231 cells cultivated in low oxygen or normal atmosphere; western blot

binding: binds
Substance: hypoxia-inducing factor 1α (HIF-1α) (from UniProt Q16665 1-826)
